Source: PubChem BioAssay AID651768 (National Center for Advancing Translational Sciences (NCATS), 2012)
Out of some 360,000 compounds screened, about 1,700 (0.47%) were called active. The inconclusive results got no clear call from the source; some entries with a clear call stand among them for comparison. Calls come from the whole dose curve; as a rule, active = well fitted inhibition curve with a large enough effect; inconclusive = small, poorly fitted or top-dose-only effect; inactive = no such curve, though single readings can be large or run the other way. Potencies beside an inconclusive call are fits to weak or partial responses and may not hold up.

Sequences of proteins named here, by UniProt entry; tags and fusion partners are left off.
UniProt Q14191, whole entry, looked up: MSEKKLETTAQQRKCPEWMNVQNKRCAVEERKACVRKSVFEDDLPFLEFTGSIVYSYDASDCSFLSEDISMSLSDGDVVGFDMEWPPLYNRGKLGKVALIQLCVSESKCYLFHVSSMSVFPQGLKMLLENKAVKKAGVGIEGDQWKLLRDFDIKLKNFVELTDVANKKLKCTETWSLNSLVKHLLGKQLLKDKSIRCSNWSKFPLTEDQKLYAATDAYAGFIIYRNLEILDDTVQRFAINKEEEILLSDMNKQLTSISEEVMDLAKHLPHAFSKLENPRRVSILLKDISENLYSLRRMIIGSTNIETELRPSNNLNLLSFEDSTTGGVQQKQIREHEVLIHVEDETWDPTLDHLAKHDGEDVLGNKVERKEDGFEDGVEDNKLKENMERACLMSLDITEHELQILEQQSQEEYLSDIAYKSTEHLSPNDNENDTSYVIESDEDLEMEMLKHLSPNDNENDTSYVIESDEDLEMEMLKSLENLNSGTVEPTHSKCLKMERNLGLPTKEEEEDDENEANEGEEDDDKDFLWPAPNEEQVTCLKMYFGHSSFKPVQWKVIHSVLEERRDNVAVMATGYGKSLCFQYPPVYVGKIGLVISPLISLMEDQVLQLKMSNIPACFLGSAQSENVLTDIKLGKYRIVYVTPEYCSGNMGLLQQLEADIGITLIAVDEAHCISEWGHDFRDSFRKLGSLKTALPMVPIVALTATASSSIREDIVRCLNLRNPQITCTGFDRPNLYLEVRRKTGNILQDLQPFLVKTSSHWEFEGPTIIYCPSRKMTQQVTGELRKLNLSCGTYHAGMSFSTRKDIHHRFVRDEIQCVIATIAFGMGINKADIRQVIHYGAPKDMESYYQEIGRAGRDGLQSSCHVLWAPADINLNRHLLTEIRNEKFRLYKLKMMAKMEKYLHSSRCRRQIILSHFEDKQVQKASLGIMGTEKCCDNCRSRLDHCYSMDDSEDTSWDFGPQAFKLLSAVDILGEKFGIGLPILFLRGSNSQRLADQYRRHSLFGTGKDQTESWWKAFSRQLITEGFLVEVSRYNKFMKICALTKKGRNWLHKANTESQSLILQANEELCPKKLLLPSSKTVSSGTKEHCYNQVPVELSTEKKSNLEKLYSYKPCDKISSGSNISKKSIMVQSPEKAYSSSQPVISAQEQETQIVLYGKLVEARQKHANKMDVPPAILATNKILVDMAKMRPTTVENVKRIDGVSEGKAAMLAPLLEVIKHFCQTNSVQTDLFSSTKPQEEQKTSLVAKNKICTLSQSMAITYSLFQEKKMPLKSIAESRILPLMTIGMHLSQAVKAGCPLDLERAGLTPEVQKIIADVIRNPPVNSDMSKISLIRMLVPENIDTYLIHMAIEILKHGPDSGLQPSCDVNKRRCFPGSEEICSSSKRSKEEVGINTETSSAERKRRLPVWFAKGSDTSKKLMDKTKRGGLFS

Each compound was assayed against Bifunctional 3'-5' exonuclease/ATP-dependent helicase WRN (Homo sapiens) (UniProt Q14191) (assay: qHTS for Inhibitors of WRN Helicase). Conditions: WRN helicase unwinding, fluorescent forked duplex, kinetic; activity change, negative = inhibition: at 114 µM (top of the series) unless noted.
In short: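 WRN at 20 nM final preincubated with compound 15 min at room temperature; reaction started with 100 nM fluorophore/quencher forked duplex oligonucleotide and 2 mM ATP final. Unwinding followed kinetically by red fluorescence (ex 525, em 598 nm).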
% is set by controls: 0 for no effect and ±100 for the full control effect; potency is the fitted concentration of half-maximal effect.
Note: nearly all actives have a fitted effect of over 55% in size.

Row | Structure (SMILES) | Potency | activity change, negative = inhibition
1 | O=C1c2cccc3cccc(c23)C(=O)N1c1ccc2ncccc2c1 | active: 79.4 µM | 
2 | COc1ccccc1NC(=O)Cn1nnc(C(=O)NCCc2ccccc2)c1N | inconclusive: 15.8 µM [inhibitor, full curve, poor fit] | 
3 | COc1ccc(/C=N/NC(=O)CCc2n[nH]c(=O)[nH]c2=O)cc1OC | inconclusive: 89.1 µM [inhibitor, single point] | 
4 | N#C/C(=C\c1ccc(OC(=O)c2cccs2)cc1)c1nc2ccccc2[nH]1 | inconclusive: 56.2 µM [inhibitor, partial curve] | 
5 | COc1ccc(C(=O)N/C(=C\c2ccc(OC)c(OC)c2)C(=O)N2CCCCC2)cc1 | inactive | 
6 | COc1ccc(NC(=O)COC(=O)CN2C(=O)C3CCCCC3C2=O)cc1OC (centres undefined) | inactive | 
7 | Nc1cccc2c1C(=O)N(C(=O)/C=C/c1ccc(F)cc1)C2=O | inconclusive: 39.8 µM [inhibitor, partial curve] | 
8 | Nc1ccc(-c2nc3nc(N)nc(N)c3nc2-c2ccc(N)cc2)cc1 | inactive | 
9 | COc1cc(Cl)c(NC2=CC(=O)C(=O)c3ccccc32)c(OC)c1 | inactive | 
10 | O=C(CSc1nc(-c2ccccc2)nc2c1Cc1ccccc1O2)Nc1ccc(C(=O)O)cc1 | inconclusive: 6.31 µM [inhibitor, partial curve, poor fit] | 
11 | O=C(COC(=O)/C=C/c1ccco1)NCc1ccco1 | inconclusive: 79.4 µM [inhibitor, partial curve] | 
12 | Cc1ccc(NC(=O)CCn2c(=O)c3cccn3c3ccccc32)c(C)c1 | inactive | 
13 | N#CC1(NC(=O)COC(=O)c2cc(O)c3ccccc3c2O)CCCCC1 | inconclusive: 50.1 µM [inhibitor, partial curve] | 
14 | Cc1c(O)ccc(/C=N/Nc2nc(-c3cccnc3)nc3ccccc23)c1O | inconclusive: 39.8 µM [inhibitor, partial curve] | 
15 | Cc1noc(C)c1CSc1nc2cc(S(=O)(=O)N3CCOCC3)ccc2o1 |  | inconclusive: -37.1% [inhibitor] [at 57.1 µM]
16 | O=C(O)CCC(=O)NCC(=O)c1ccc(F)cc1 | inconclusive: 39.8 µM [inhibitor, single point] | 
17 | Cc1cc(C)cc(OCC(=O)N/N=C/c2ccncc2)c1 | inconclusive: 39.8 µM [inhibitor, single point] | 
18 | O=C(Nc1cccc(Cl)c1)c1ccc2sc([C@H]3C[C@H](O)[C@@H](CO)O3)nc2c1 | inactive | 
19 | COC(=O)c1c(NC(=O)CCCC(=O)O)sc2c1CCC2 | inconclusive: 16.8 µM [inhibitor, partial curve] | 
20 | CCc1ccc(-c2ccc(SCC(=O)Nc3nnc(C)s3)nn2)cc1 | inconclusive: 39.8 µM [inhibitor, single point] | 
21 | Cc1cc(F)ccc1NCC(=O)Nc1ccc(Br)cc1C | inconclusive: 100 µM [inhibitor, single point] | 
22 | Cc1cc(NC(=O)c2ccc(N3CCCC3)c([N+](=O)[O-])c2)no1 | inactive | 

Row | Structure (SMILES) | Potency | activity change, negative = inhibition
23 | O=C(O)c1ccccc1-c1c2cc(I)c(=O)c(I)c-2oc2c(I)c(O)c(I)cc12 | active: 4.74 µM | 
24 | COCc1cc(=O)n2[nH]c(-c3ccsc3-n3c(C)ccc3C)cc2n1 | active: 31.6 µM | 
25 | CCC1CCCCN1S(=O)(=O)c1ccc(NC(=O)C2CCCO2)cc1 (centres undefined) | inconclusive: 31.6 µM [inhibitor, full curve, poor fit] | 
26 | O=C(Nc1ccc2c(c1)N(S(=O)(=O)c1cccs1)CCC2)c1c(F)cccc1Cl | inactive | 
27 | O=C(/C=C/c1ccc(Cl)cc1)c1cccnc1 | inconclusive: 56.2 µM [inhibitor, partial curve] | 
28 | COc1ccc(NC(=O)CN(C)C(=O)c2cc(-c3ccco3)nc3ccccc23)cc1 | active: 63.1 µM | 
29 | O=C(Nc1cccnc1)c1cc2c(ccc3ccccc32)o1 | inconclusive: 79.4 µM [inhibitor, partial curve] | 
30 | COc1ccc(OC)c(-c2csc(N(Cc3ccco3)C(=O)c3ccco3)n2)c1 | inconclusive: 63.1 µM [inhibitor, single point] | 
31 | COc1cccc(C=Nc2cc(C(C)C)c(O)cc2C)c1O | inconclusive: 22.4 µM [inhibitor, partial curve] | 
32 | O=C(N/N=C/c1ccccc1Cl)c1[nH]c2ccc(Br)cc2c1-c1ccccc1 | active: 25.1 µM | 
33 | O=C(Cc1cccc(NC(=O)C2CCCN(C(=O)C3CCCCC3)C2)c1)Nc1ccc(C(=O)N2CCCCC2)cc1 (centres undefined) | inactive | 
34 | CC(C)(C)c1cc[n+](C2=C([O-])c3ccccc3C(=O)/C2=N\S(=O)(=O)c2cccs2)cc1 | inconclusive: 3.55 µM [inhibitor, full curve, poor fit] | 
35 | Cc1nc(SC(C)C(=O)Nc2cccc(C(F)(F)F)c2)c2c(C)c(C(=O)O)sc2n1 (centres undefined) | inconclusive: 44.7 µM [inhibitor, partial curve] | 
36 | O=C(OCCc1ccccc1)c1cc(O)c(O)c(O)c1 | inconclusive: 39.8 µM [inhibitor, partial curve] | 
37 | O=C(Nc1cc(S(=O)(=O)N2CCOCC2)ccc1N1CCOCC1)c1ccccc1Cl | inconclusive: 11.2 µM [inhibitor, full curve, poor fit] | 
38 | CCc1nc(SCC(=O)Nc2ccc(N(C)C)cc2)n[nH]1 | inactive | 
39 | O=c1c2c([N+](=O)[O-])cc([N+](=O)[O-])cc2sn1-c1ccc(Br)cc1 | active: 79.4 µM | 
40 | O=C(CSc1nnc(-c2ccco2)c(-c2ccco2)n1)c1ccccc1 | inconclusive: 50.1 µM [inhibitor, partial curve] | 
41 | Cc1c(C(=O)OCCOC(C)C)[nH]c2c1C(=O)CC(c1ccco1)C2 (centres undefined) | inconclusive: 56.2 µM [inhibitor, partial curve] | 
42 | CC(C)Nc1nnc(SCC(=O)Nc2ccc3c(c2)C(=O)c2ccccc2C3=O)s1 | inconclusive: 3.16 µM [inhibitor, full curve, poor fit] | 
43 | COc1ccc(C(=O)C2CCN(CC(=O)NCc3ccccc3)CC2)cc1 | inconclusive: 31.6 µM [inhibitor, single point] | 
44 | CN(C)c1ccc2nc3c(=O)[nH]c(=O)nc-3n(CC(O)C(O)C(O)CO)c2c1 (centres undefined) | active: 2.99 µM | 

3 compounds drawn at random from those above, as already listed:
Row | Structure (SMILES) | Potency | activity change, negative = inhibition
40 | O=C(CSc1nnc(-c2ccco2)c(-c2ccco2)n1)c1ccccc1 | inconclusive: 50.1 µM [inhibitor, partial curve] | 
34 | CC(C)(C)c1cc[n+](C2=C([O-])c3ccccc3C(=O)/C2=N\S(=O)(=O)c2cccs2)cc1 | inconclusive: 3.55 µM [inhibitor, full curve, poor fit] | 
22 | Cc1cc(NC(=O)c2ccc(N3CCCC3)c([N+](=O)[O-])c2)no1 | inactive | 
